PubChem BioAssay AID1224829, NIAID – 2016

- Test: 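Genes needed for LPS-driven NF-kappaB p65 nuclear entry in mouse macrophages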 (follow-up of hits)
- Cell system: mouse RAW264.7 G9 macrophage reporter cells
- Reagents: single siRNA against mouse genes, 100 nM
- Duration: 2 days of siRNA knock-down, then 40 min of LPS before fixing
- Challenge: LPS (Salmonella minnesota R595) at 10 ng/ml
- Detection: 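Imaging of GFP-p65 after 40 min of LPS; nuclear over perinuclear ring intensity ratio, scaled to plate median and non-targeting control wells, given as z-score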
- Scale: p65 translocation z-score and gene median z-score, per vendor: higher = more nuclear NF-kappaB p65 after LPS
- Call rule: 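An siRNA is called active when the mean z-score of its two replicates is above 2 or below -2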
- Meaning of the calls: active = changed p65 translocation (either direction); inactive = no clear change
The deposit covers about 3,800 reagents; below is a random part of them. 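Calls cover raised and lowered translocation; gene median uses one vendor's three siRNAs; qiagen siRNAs acted more weakly than ambion siRNAs.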 A number with no mark means an inactive call. The numbers tell different reagents against one gene apart.

target gene,siRNA no.,siRNA vendor or control pool,"p65 translocation z-score, replicate mean","p65 translocation z-score, replicate 1","p65 translocation z-score, replicate 2","gene median z-score, per vendor"
Trim12a (GeneID 76681),1,ambion single siRNA,-2.15 (active),-1.74,-2.55,-3.96
Trim12a (GeneID 76681),2,ambion single siRNA,-5.14 (active),-5.08,-5.21,-3.96
Trim12a (GeneID 76681),3,ambion single siRNA,-3.96 (active),-4.07,-3.84,-3.96
Trim12a (GeneID 76681),4,qiagen single siRNA,1.39,0.706,2.06,0.847
Trim12a (GeneID 76681),5,qiagen single siRNA,0.674,0.361,0.987,0.847
Trim12a (GeneID 76681),6,qiagen single siRNA,-0.703,-3.16,1.76,0.847
Slc16a10 (GeneID 72472),1,ambion single siRNA,-0.348,0.232,-0.927,-0.144
Slc16a10 (GeneID 72472),2,ambion single siRNA,2.11 (active),1.94,2.28,-0.144
Slc16a10 (GeneID 72472),3,ambion single siRNA,-3.75 (active),-0.52,-6.99,-0.144
Slc16a10 (GeneID 72472),4,qiagen single siRNA,-0.951,-0.93,-0.972,0.0411
Slc16a10 (GeneID 72472),5,qiagen single siRNA,0.947,-0.245,2.14,0.0411
Slc16a10 (GeneID 72472),6,qiagen single siRNA,1.33,0.327,2.34,0.0411
Ulk4 (GeneID 209012),1,ambion single siRNA,-1.97,-2.09,-1.84,-1.99
Ulk4 (GeneID 209012),2,ambion single siRNA,-1.72,-1.56,-1.89,-1.99
Ulk4 (GeneID 209012),3,ambion single siRNA,-5.02 (active),-5.48,-4.56,-1.99
Ulk4 (GeneID 209012),4,qiagen single siRNA,2.42 (active),2.03,2.81,-0.408
Ulk4 (GeneID 209012),5,qiagen single siRNA,-1.86,-1.71,-2,-0.408
Ulk4 (GeneID 209012),6,qiagen single siRNA,-0.408,-0.656,-0.16,-0.408
C730034F03Rik (GeneID 105246016),1,ambion single siRNA,-2.29 (active),-2.28,-2.29,-2.09
C730034F03Rik (GeneID 105246016),2,ambion single siRNA,-1.72,-1.55,-1.89,-2.09
C730034F03Rik (GeneID 105246016),3,ambion single siRNA,-3.17 (active),-1.6,-4.75,-2.09
C730034F03Rik (GeneID 105246016),4,qiagen single siRNA,1.54,1.02,2.05,-0.501
C730034F03Rik (GeneID 105246016),5,qiagen single siRNA,-0.501,-0.735,-0.267,-0.501
C730034F03Rik (GeneID 105246016),6,qiagen single siRNA,-1.64,-1.35,-1.92,-0.501
Muc19 (GeneID 239611),1,ambion single siRNA,-5.1 (active),-5.1,,-3.13
Muc19 (GeneID 239611),2,ambion single siRNA,-1.48,-0.0462,-2.91,-3.13
Muc19 (GeneID 239611),3,ambion single siRNA,-3.17 (active),-3.22,-3.13,-3.13
Muc19 (GeneID 239611),4,qiagen single siRNA,1.91,1.68,2.14,-1.05
Muc19 (GeneID 239611),5,qiagen single siRNA,-1.05,-0.487,-1.61,-1.05
Muc19 (GeneID 239611),6,qiagen single siRNA,-5.98 (active),-3.36,-8.61,-1.05
Or1q1 (GeneID 258616),1,ambion single siRNA,-3.99 (active),-3.95,-4.02,-1.97
Or1q1 (GeneID 258616),2,ambion single siRNA,-0.719,-0.966,-0.472,-1.97
Or1q1 (GeneID 258616),3,ambion single siRNA,-1.97,-1.97,,-1.97
Or1q1 (GeneID 258616),4,qiagen single siRNA,-0.35,0.646,-1.35,-0.617
Or1q1 (GeneID 258616),5,qiagen single siRNA,0.638,-0.0147,1.29,-0.617
Or1q1 (GeneID 258616),6,qiagen single siRNA,-1.71,-2.2,-1.22,-0.617
Nr1d1 (GeneID 217166),1,ambion single siRNA,-5.95 (active),-6.6,-5.3,-4.12
Nr1d1 (GeneID 217166),2,ambion single siRNA,-1.22,-0.665,-1.77,-4.12
Nr1d1 (GeneID 217166),3,ambion single siRNA,-4.12 (active),-5.02,-3.22,-4.12
Nr1d1 (GeneID 217166),4,qiagen single siRNA,-0.781,-0.462,-1.1,-1.05
Nr1d1 (GeneID 217166),5,qiagen single siRNA,-3.94 (active),-1.56,-6.33,-1.05
Nr1d1 (GeneID 217166),6,qiagen single siRNA,-0.829,-0.656,-1,-1.05
Mob3b (GeneID 214944),1,ambion single siRNA,-0.487,-0.286,-0.689,-4.36
Mob3b (GeneID 214944),2,ambion single siRNA,-5.57 (active),-6.18,-4.96,-4.36
Mob3b (GeneID 214944),3,ambion single siRNA,-5.11 (active),-6.44,-3.77,-4.36
Bpifb5 (GeneID 228802),1,ambion single siRNA,-2.91 (active),-1.96,-3.86,-2.91
Bpifb5 (GeneID 228802),2,ambion single siRNA,-2.91 (active),-3.24,-2.58,-2.91
Bpifb5 (GeneID 228802),3,ambion single siRNA,,,,-2.91
Bpifb5 (GeneID 228802),4,qiagen single siRNA,0.763,0.438,1.09,1.3
Bpifb5 (GeneID 228802),5,qiagen single siRNA,1.52,1.52,1.52,1.3
Bpifb5 (GeneID 228802),6,qiagen single siRNA,,,,1.3
Pcolce2 (GeneID 76477),1,ambion single siRNA,-3.67 (active),-4.72,-2.62,-0.612
Pcolce2 (GeneID 76477),2,ambion single siRNA,-0.0581,-0.801,0.685,-0.612
Pcolce2 (GeneID 76477),3,ambion single siRNA,0.0958,0.614,-0.422,-0.612
Pcolce2 (GeneID 76477),4,qiagen single siRNA,-0.34,0.255,-0.934,0.366
Pcolce2 (GeneID 76477),5,qiagen single siRNA,2.25 (active),0.477,4.03,0.366
Pcolce2 (GeneID 76477),6,qiagen single siRNA,1.23,-1.18,3.64,0.366
Usp43 (GeneID 216835),1,ambion single siRNA,-0.858,-0.0689,-1.65,0.409
Usp43 (GeneID 216835),2,ambion single siRNA,0.446,1.38,-0.487,0.409
Usp43 (GeneID 216835),3,ambion single siRNA,1.59,2.3,0.888,0.409
Cse1l (GeneID 110750),1,ambion single siRNA,-0.149,0.196,-0.494,-0.31
Cse1l (GeneID 110750),2,ambion single siRNA,1.08,2.28,-0.126,-0.31
Cse1l (GeneID 110750),3,ambion single siRNA,-5.04 (active),-3.83,-6.25,-0.31
Cse1l (GeneID 110750),4,qiagen single siRNA,3.52 (active),4.22,2.82,0.681
Cse1l (GeneID 110750),5,qiagen single siRNA,-0.878,0.681,-2.44,0.681
Cse1l (GeneID 110750),6,qiagen single siRNA,-0.286,-0.286,,0.681
